Experimental data published in the supplement of paper PMC4604168 (melanoma cell lines).
This is one part of the list. Repeats are few or missing, and single values can be far off.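 Imaging used 1,536-well plates; nuclei positive for cleaved PARP by antibody were divided by total DNA-stained nuclei to yield the apoptosis fraction. Doses for screening kept most cells viable, and cell lines differ markedly in resting and induced cleaved-PARP levels.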

The compounds below were run on COLO829 (assay: cleaved PARP positive nuclei fraction relative to DMSO control; melanoma cells; higher = more apoptosis). Conditions: library dose: low library concentration; 72 h.

Row | SMILES | cleaved PARP positive nuclei fraction [%]
1 | COCC[n+]1c2c(n(Cc3cnccn3)c1C)C(=O)c1ccccc1C2=O + COc1ccc(-c2ccc3c(N4CCOCC4)nc(N4C[C@@H](C)O[C@@H](C)C4)nc3n2)cc1CO [KU0063794] (first compound 0.0004 µM, partner dose 0.02 µM) | 48.6
2 | COc1cc(Nc2ncc(F)c(Nc3ccc4c(n3)NC(=O)C(C)(C)O4)n2)cc(OC)c1OC [Tamatinib] + O=C1NC(=O)/C(=C/c2ccc(-c3ccc(F)cc3O)o2)S1 [AS252424] (first compound 0.4 µM, partner dose 1 µM) | 129
3 | OCCn1cc(-c2cnc3nnn(Cc4ccc5ncccc5c4)c3n2)cn1 + Cc1cc([N+](=O)[O-])ccc1NS(=O)(=O)c1cc(Cl)ccc1Cl [FH535] (first compound 1 µM, partner dose 1 µM) | 184
4 | Nc1cccc2c1CN(C1CCC(=O)NC1=O)C2=O (stereo not given) [lenalidomide] + CCN(CC)CCCCNc1ncc2cc(-c3cc(OC)cc(OC)c3)c(NC(=O)NC(C)(C)C)nc2n1 [PD173074] (first compound 1 µM, partner dose 0.1 µM) | 110
5 | C[C@@H]1CCN(C(=O)CC#N)C[C@@H]1N(C)c1ncnc2[nH]ccc12 + O=C(O)C(=O)Nc1sc2c(c1C(=O)O)CCNC2 [TCS401] (first compound 1 µM, partner dose 1.66667 µM) | 45.4
6 | OCCn1cc(-c2cnc3nnn(Cc4ccc5ncccc5c4)c3n2)cn1 + COc1ccc2c(c1)CCC1C2CCC2(C)C(NCCCCCCN3C(=O)C=CC3=O)CCC12 [U73122] (first compound 1 µM, partner dose 0.4 µM) | 80.5
7 | Cc1cc(N2CCOCC2)cc2[nH]c(-c3c(NC[C@@H](O)c4cccc(Cl)c4)cc[nH]c3=O)nc12 + O=C(Nc1ccccc1)c1cc([N+](=O)[O-])ccc1Cl [GW9662] (first compound 0.2 µM, partner dose 2 µM) | 90.9
8 | Nc1cccc2c1CN(C1CCC(=O)NC1=O)C2=O (stereo not given) [lenalidomide] + O=C(Nc1ccccc1)c1cc([N+](=O)[O-])ccc1Cl [GW9662] (first compound 1 µM, partner dose 2 µM) | 110
9 | CC(C)(C)c1cnc(CSc2cnc(NC(=O)C3CCNCC3)s2)o1 + Oc1cc(-c2nc(-c3ccccc3)[nH]c2-c2ccncc2)ccc1Cl [L779450] (first compound 0.01 µM, partner dose 0.2 µM) | 128
10 | Cc1nc(Nc2ncc(C(=O)Nc3c(C)cccc3Cl)s2)cc(N2CCN(CCO)CC2)n1 [dasatanib] + COC(=O)c1sccc1S(=O)(=O)Nc1ccc(Nc2ccccc2)cc1OC [GSK0660] (first compound 0.004 µM, partner dose 1 µM) | 116
11 | C#Cc1cccc(Nc2ncnc3cc(OCCOC)c(OCCOC)cc23)c1 [erlotinib] + O=C(O)C(=O)Nc1sc2c(c1C(=O)O)CCNC2 [TCS401] (first compound 0.8 µM, partner dose 1.66667 µM) | 189
12 | Cn1c(Nc2ccc(C(F)(F)F)cc2)nc2cc(Oc3ccnc(-c4ncc(C(F)(F)F)[nH]4)c3)ccc21 + CCCCCCCCCCCC1=C(O)C(=O)C=C(O)C1=O [Embelin] (first compound 0.08 µM, partner dose 1.2 µM) | 53.8
13 | Cn1cncc1[C@@](N)(c1ccc(Cl)cc1)c1ccc2c(c1)c(-c1cccc(Cl)c1)cc(=O)n2C [tipifarnib] + COc1cc2ncnc(Nc3ccc(Oc4ccccc4)cc3)c2cc1OC [SrcI1] (first compound 0.01 µM, partner dose 2 µM) | 76.2
14 | C#Cc1cccc(Nc2ncnc3cc(OCCOC)c(OCCOC)cc23)c1 [erlotinib] + COc1cc2ncnc(Nc3ccc(Oc4ccccc4)cc3)c2cc1OC [SrcI1] (first compound 0.8 µM, partner dose 2 µM) | 161
15 | Nc1cccc2c1CN(C1CCC(=O)NC1=O)C2=O (stereo not given) [lenalidomide] + Cn1cc(/C=C2\C(=O)Nc3cccnc32)c2ccccc21 [GW441756] (first compound 1 µM, partner dose 0.4 µM) | 115
16 | Cc1nc(Nc2ncc(C(=O)Nc3c(C)cccc3Cl)s2)cc(N2CCN(CCO)CC2)n1 [dasatanib] + c1cc(-c2cnn3cc(-c4ccc(OCCN5CCCCC5)cc4)cnc23)ccn1 [Dorsomorphin] (first compound 0.004 µM, partner dose 0.4 µM) | 176
17 | Cn1cncc1[C@@](N)(c1ccc(Cl)cc1)c1ccc2c(c1)c(-c1cccc(Cl)c1)cc(=O)n2C [tipifarnib] + O=C(O)C(=O)Nc1sc2c(c1C(=O)O)CCNC2 [TCS401] (first compound 0.01 µM, partner dose 1.66667 µM) | 57.8
18 | Cn1c(Nc2ccc(C(F)(F)F)cc2)nc2cc(Oc3ccnc(-c4ncc(C(F)(F)F)[nH]4)c3)ccc21 + O=C(Nc1ccccc1)c1cc([N+](=O)[O-])ccc1Cl [GW9662] (first compound 0.08 µM, partner dose 2 µM) | 141
19 | Cn1cncc1[C@@](N)(c1ccc(Cl)cc1)c1ccc2c(c1)c(-c1cccc(Cl)c1)cc(=O)n2C [tipifarnib] + Oc1nc(-c2ccc(C(F)(F)F)cc2)nc2c1CSCC2 [XAV939] (first compound 0.01 µM, partner dose 2 µM) | 134
20 | Cn1nnc2c(C(N)=O)ncn2c1=O [temozolomide] + COc1ccc2c(c1)CCC1C2CCC2(C)C(NCCCCCCN3C(=O)C=CC3=O)CCC12 [U73122] (first compound 2 µM, partner dose 0.4 µM) | 175

An excerpt of these results, with each value named:
COCC[n+]1c2c(n(Cc3cnccn3)c1C)C(=O)c1ccccc1C2=O + COc1ccc(-c2ccc3c(N4CCOCC4)nc(N4C[C@@H](C)O[C@@H](C)C4)nc3n2)cc1CO [KU0063794] (first compound 0.0004 µM, partner dose 0.02 µM)
  cleaved PARP positive nuclei fraction [%]: 48.6
Cc1nc(Nc2ncc(C(=O)Nc3c(C)cccc3Cl)s2)cc(N2CCN(CCO)CC2)n1 [dasatanib] + COC(=O)c1sccc1S(=O)(=O)Nc1ccc(Nc2ccccc2)cc1OC [GSK0660] (first compound 0.004 µM, partner dose 1 µM)
  cleaved PARP positive nuclei fraction [%]: 116
